Values from PubChem BioAssay AID652243 (Drosophila RNAi Screening Center, 2013).
The deposit covers about 24,000 reagents; this is an unselected part of those that have a named target and a result. Of all reagents, 246 (1%) got an active call. 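Plates not normalised; calls are printed but the firefly/Renilla ratio behind them is not deposited; fold cut for lowering reported inconsistently.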 The raw values are shown without normalisation. The numbers tell different reagents against one gene apart. A plus sign joins genes that one reagent is predicted to hit. Not given: the amount of reagent.

Screen: 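Knock-downs that decrease or increase androgen receptor reporter signal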 (primary screen)
Cells: Drosophila S2R+ cells
Reagents: long dsRNA against Drosophila genes
Timing: 72 h (48 h, then 24 h hormone)
Conditions: synthetic androgen R1881 at 10 nM for 24 h
Read-out: 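Firefly light from an androgen-responsive reporter and Renilla control light per well, raw and unnormalised, for each of two replicates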
Scale: firefly reporter light: higher = more light from androgen-responsive reporter; Renilla control light: higher = more constitutive control signal (cell number, transfection)
Call rule: 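Hit when the log firefly-to-Renilla ratio dropped or increased by a fixed fold versus the mean of GFP or LacZ controls across duplicate plates; lowering cut given as 1.5 and as 3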
Calls: active = hit: reporter lowered or raised; inactive = no hit

| Gene | dsRNA no. | firefly reporter light, replicate 1 | firefly reporter light, replicate 2 | Renilla control light, replicate 1 | Renilla control light, replicate 2 | Call |
| --- | --- | --- | --- | --- | --- | --- |
| CG13643 | 1 | 1.43e5 | 1.49e5 | 2.31e6 | 1.94e6 | inactive |
| CG13643 | 2 | 1.39e5 | 1.81e5 | 2.13e6 | 2.37e6 | inactive |
| CG13643 | 3 | 4.17e5 | 8.21e5 | 7.33e5 | 1.42e6 | inactive |
| Or13a (Odorant receptor 13a) | 1 | 4.76e5 | 4.52e5 | 3.68e6 | 2.49e6 | inactive |
| mip120 (Myb-interacting protein 120) | 1 | 97355 | 1.22e5 | 2.72e6 | 2.72e6 | inactive |
| mip120 (Myb-interacting protein 120) | 2 | 7.37e5 | 6.23e5 | 1.77e6 | 1.98e6 | inactive |
| Syt4 (Synaptotagmin 4) | 1 | 47621 | 71244 | 1.40e6 | 1.22e6 | inactive |
| CG5225 | 1 | 5.94e5 | 9.78e5 | 7.78e5 | 7.57e5 | inactive |
| plum | 1 | 66372 | 52964 | 4.52e5 | 4.01e5 | inactive |
| CG3868 | 1 | 1.03e6 | 1.02e6 | 1.44e6 | 1.57e6 | inactive |
| Dhc16F (Dynein heavy chain at 16F) | 1 | 5.53e5 | 7.55e5 | 4.51e6 | 4.49e6 | inactive |
| CG6293 | 1 | 32564 | 80889 | 3.79e5 | 3.67e5 | inactive |
| CG6293 | 2 | 6.66e5 | 5.15e5 | 1.43e6 | 1.26e6 | inactive |
| Pkcdelta (Protein kinase C delta) | 1 | 3.64e5 | 3.45e5 | 3.76e6 | 2.88e6 | inactive |
| Pkcdelta (Protein kinase C delta) | 2 | 4.16e5 | 3.88e5 | 3.57e6 | 3.19e6 | inactive |
| Pkcdelta (Protein kinase C delta) | 3 | 4.56e5 | 4.68e5 | 7.12e5 | 5.70e5 | inactive |
| Pkcdelta (Protein kinase C delta) | 4 | – | – | – | – | inactive |
| Pkcdelta (Protein kinase C delta) | 5 | – | – | – | – | inactive |
| CG33500 | 1 | 2.84e5 | 1.54e5 | 1.34e5 | 1.36e5 | inactive |
| CheB42b (Chemosensory protein B 42b) | 1 | 5.05e5 | 3.36e5 | 1.30e6 | 1.82e6 | inactive |
| CG4950 | 1 | 1.69e5 | 1.73e5 | 2.13e6 | 1.98e6 | inactive |
| RpS3A (Ribosomal protein S3A) | 1 | 1.34e5 | 1.28e5 | 1.40e6 | 1.47e6 | inactive |
| nahoda | 1 | 1.62e5 | 1.48e5 | 3.55e5 | 3.53e5 | inactive |
| nahoda | 2 | 5.86e5 | 4.87e5 | 9.63e5 | 7.32e5 | inactive |
| CG9389 | 1 | 64738 | 36543 | 2.72e5 | 3.00e5 | inactive |
| CG9389 | 2 | – | – | – | – | inactive |
| CG9389 | 3 | – | – | – | – | inactive |
| CG11474 | 1 | 1.24e6 | 9.36e5 | 1.69e6 | 1.20e6 | inactive |
| pros (prospero) | 1 | 2.64e5 | 2.86e5 | 6.49e5 | 6.15e5 | inactive |
| pros (prospero) | 2 | 76363 | 1.01e5 | 8.40e5 | 9.56e5 | inactive |
| pros (prospero) | 3 | 3.18e5 | 1.83e5 | 4.16e5 | 7.97e5 | inactive |

A few values from the list:
Under “firefly reporter light, replicate 2”, CG3868 has 1.02e6
Pkcdelta (Protein kinase C delta) #5, Call: inactive
mip120 (Myb-interacting protein 120) #2, Renilla control light, replicate 1: 1.77e6

Continued:
| Gene | dsRNA no. | firefly reporter light, replicate 1 | firefly reporter light, replicate 2 | Renilla control light, replicate 1 | Renilla control light, replicate 2 | Call |
| --- | --- | --- | --- | --- | --- | --- |
| CG15597 | 1 | 5.86e5 | 6.74e5 | 2.36e6 | 1.93e6 | inactive |
| CG15597 | 2 | 1.48e6 | 1.26e6 | 5.05e5 | 4.84e5 | inactive |
| JMJD7 (Jumonji domain containing 7) | 1 | 5.76e5 | 6.59e5 | 2.90e6 | 3.62e6 | inactive |
| CG17896 | 1 | 37322 | 44799 | 4.60e5 | 4.28e5 | inactive |
| CG17896 | 2 | 4.51e5 | 2.46e5 | 6.17e5 | 6.23e5 | inactive |
| DIP-kappa (Dpr-interacting protein kappa) | 1 | 4.98e5 | 8.51e5 | 9.10e5 | 9.27e5 | inactive |
| DIP-kappa (Dpr-interacting protein kappa) | 2 | 3.96e5 | 4.13e5 | 4.32e5 | 4.65e5 | inactive |
| CG9776 | 1 | 62825 | 34161 | 3.87e5 | 3.52e5 | inactive |
| fz4 (frizzled 4) | 1 | 3.13e5 | 3.90e5 | 2.59e6 | 2.71e6 | inactive |
| Dbct (Dihydrolipoamide branched chain transacylase E2) | 1 | 89699 | 89599 | 7.83e5 | 7.98e5 | inactive |
| Dbct (Dihydrolipoamide branched chain transacylase E2) | 2 | 5.47e5 | 7.14e5 | 4.74e5 | 5.03e5 | inactive |
| CG8508 | 1 | 54363 | 1.02e5 | 6.39e5 | 7.51e5 | inactive |
| Fer1 (48 related 1) | 1 | 48649 | 63869 | 1.38e6 | 1.37e6 | inactive |
| Fer1 (48 related 1) | 2 | 38088 | 57251 | 1.08e6 | 1.03e6 | inactive |
| Fer1 (48 related 1) | 3 | 5.35e5 | 3.95e5 | 1.52e6 | 1.46e6 | inactive |
| CG34125 | 1 | 1.08e5 | 84958 | 4.36e5 | 3.65e5 | inactive |
| CG9826 | 1 | 2.98e5 | 2.64e5 | 2.03e6 | 1.76e6 | inactive |
| CG31698 | 1 | 5.76e5 | 6.26e5 | 1.96e6 | 1.84e6 | inactive |
| CG31698 | 2 | 3.55e5 | 6.09e5 | 9.00e5 | 1.36e6 | inactive |
| senju | 1 | 2.03e5 | 2.18e5 | 2.18e6 | 1.86e6 | inactive |
| Polr2F (RNA polymerase II, I and III subunit F) | 1 | 58742 | 73207 | 1.77e6 | 1.74e6 | inactive |
| Polr2F (RNA polymerase II, I and III subunit F) | 2 | 4.13e5 | 4.59e5 | 1.06e6 | 1.01e6 | inactive |
| Spag1 (Spag1 axonemal dynein assembly factor) | 1 | 1.67e5 | 1.41e5 | 1.50e6 | 2.70e6 | inactive |
| cue (cueball) | 1 | 1.84e6 | 1.81e6 | 2.26e6 | 1.48e6 | inactive |
| CR12628 + Mgstl | 1 | 2.84e5 | 3.12e5 | 1.47e6 | 1.14e6 | inactive |
| CR12628 + Mgstl | 2 | 3.06e5 | 2.65e5 | 9.25e5 | 6.14e5 | inactive |
| CG10417 | 1 | 7.78e5 | 7.70e5 | 2.09e6 | 2.09e6 | inactive |
| CG10417 | 2 | 2.26e5 | 2.47e5 | 4.89e5 | 7.63e5 | inactive |
| CG10417 | 3 | – | – | – | – | inactive |
